Laboratory results: the supplement of paper PMC8728848
Some of the results follow.

Assays:
Assay in all cases: glycan array binding signal (z-score within array); higher = stronger binding
Conditions in all cases: glycan notation: IUPAC condensed, linker removed
[1] = molecular target: Fuc(a1-2)Gal6S(b1-3)GlcNAc6S
Method in brief: (§1)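 The binding signal is a Z-score computed within each array. Data were drawn from 3228 arrays in the Consortium for Functional Glycomics database, restricted to those with a known protein sequence. Scores were averaged over arrays of the same protein sequence at different concentrations or buffers, and over linkers, and negative values can be taken as non-binding.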

Fuc(a1-2)Gal6S(b1-4)Glc = molecular target: Fuc(a1-2)Gal6S(b1-4)Glc
Method in brief: as §1

[2] = molecular target: Fuc(a1-2)Gal6S(b1-4)Glc6S
Method in brief: as §1

Fuc(a1-2)[Gal(a1-3)]Gal = molecular target: Fuc(a1-2)[Gal(a1-3)]Gal
Method in brief: as §1

[3] = molecular target: Fuc(a1-2)[Gal(a1-3)]Gal(b1-3)GalNAc
Method in brief: as §1

[4] = molecular target: Fuc(a1-2)[Gal(a1-3)]Gal(b1-3)GalNAc(b1-3)Gal(a1-4)Gal(b1-4)Glc
Method in brief: as §1

[5] = molecular target: Fuc(a1-2)[Gal(a1-3)]Gal(b1-3)GlcNAc
Method in brief: as §1

[6] = molecular target: Fuc(a1-2)[Gal(a1-3)]Gal(b1-3)GlcNAc(b1-2)Man(a1-3)[Fuc(a1-2)[Gal(a1-3)]Gal(b1-3)GlcNAc(b1-2)Man(a1-6)]Man(b1-4)GlcNAc(b1-4)GlcNAc
Method in brief: as §1

[7] = molecular target: Fuc(a1-2)[Gal(a1-3)]Gal(b1-3)GlcNAc(b1-2)Man(a1-3)[Fuc(a1-2)[Gal(a1-3)]Gal(b1-3)GlcNAc(b1-2)Man(a1-6)]Man(b1-4)GlcNAc(b1-4)[Fuc(a1-6)]GlcNAc
Method in brief: as §1

[8] = molecular target: Fuc(a1-2)[Gal(a1-3)]Gal(b1-3)GlcNAc(b1-3)GalNAc
Method in brief: as §1

[9] = molecular target: Fuc(a1-2)[Gal(a1-3)]Gal(b1-3)GlcNAc(b1-6)GalNAc
Method in brief: as §1

[10] = molecular target: Fuc(a1-2)[Gal(a1-3)]Gal(b1-4)Glc
Method in brief: as §1

[11] = molecular target: Fuc(a1-2)[Gal(a1-3)]Gal(b1-4)GlcNAc
Method in brief: as §1

[12] = molecular target: Fuc(a1-2)[Gal(a1-3)]Gal(b1-4)GlcNAc(b1-2)Man
Method in brief: as §1

[13] = molecular target: Fuc(a1-2)[Gal(a1-3)]Gal(b1-4)GlcNAc(b1-2)Man(a1-3)[Fuc(a1-2)[Gal(a1-3)]Gal(b1-4)GlcNAc(b1-2)Man(a1-6)]Man(b1-4)GlcNAc(b1-4)GlcNAc
Method in brief: as §1

[14] = molecular target: Fuc(a1-2)[Gal(a1-3)]Gal(b1-4)GlcNAc(b1-2)Man(a1-3)[Fuc(a1-2)[Gal(a1-3)]Gal(b1-4)GlcNAc(b1-2)Man(a1-6)]Man(b1-4)GlcNAc(b1-4)[Fuc(a1-6)]GlcNAc
Method in brief: as §1

[15] = molecular target: Fuc(a1-2)[Gal(a1-3)]Gal(b1-4)GlcNAc(b1-3)GalNAc
Method in brief: as §1

[16] = molecular target: Fuc(a1-2)[Gal(a1-3)]Gal(b1-4)GlcNAc(b1-3)[Fuc(a1-2)[Gal(a1-3)]Gal(b1-4)GlcNAc(b1-6)]GalNAc
Method in brief: as §1

[17] = molecular target: Fuc(a1-2)[Gal(a1-3)]Gal(b1-4)GlcNAc(b1-6)GalNAc
Method in brief: as §1

[18] = molecular target: Fuc(a1-2)[Gal(a1-3)]Gal(b1-4)[Fuc(a1-3)]Glc
Method in brief: as §1

[19] = molecular target: Fuc(a1-2)[Gal(a1-3)]Gal(b1-4)[Fuc(a1-3)]GlcNAc
Method in brief: as §1

[20] = molecular target: Fuc(a1-2)[Gal(a1-3)]Gal(b1-4)[Fuc(a1-3)]GlcNAc(b1-3)GalNAc
Method in brief: as §1

[21] = molecular target: Fuc(a1-2)[Gal(a1-4)]Gal(b1-4)GlcNAc
Method in brief: as §1

[22] = molecular target: Fuc(a1-2)[GalNAc(a1-3)]Gal
Method in brief: as §1

[23] = molecular target: Fuc(a1-2)[GalNAc(a1-3)]Gal(b1-3)GalNAc(a1-3)[Fuc(a1-2)]Gal(b1-4)GlcNAc
Method in brief: as §1

[24] = molecular target: Fuc(a1-2)[GalNAc(a1-3)]Gal(b1-3)GalNAc(b1-3)Gal(a1-4)Gal(b1-4)Glc
Method in brief: as §1

[25] = molecular target: Fuc(a1-2)[GalNAc(a1-3)]Gal(b1-3)GlcNAc
Method in brief: as §1

[26] = molecular target: Fuc(a1-2)[GalNAc(a1-3)]Gal(b1-3)GlcNAc(b1-2)Man(a1-3)[Fuc(a1-2)[GalNAc(a1-3)]Gal(b1-3)GlcNAc(b1-2)Man(a1-6)]Man(b1-4)GlcNAc(b1-4)GlcNAc
Method in brief: as §1

[27] = molecular target: Fuc(a1-2)[GalNAc(a1-3)]Gal(b1-3)GlcNAc(b1-2)Man(a1-3)[Fuc(a1-2)[GalNAc(a1-3)]Gal(b1-3)GlcNAc(b1-2)Man(a1-6)]Man(b1-4)GlcNAc(b1-4)[Fuc(a1-6)]GlcNAc
Method in brief: as §1

[28] = molecular target: Fuc(a1-2)[GalNAc(a1-3)]Gal(b1-3)GlcNAc(b1-3)GalNAc
Method in brief: as §1

[29] = molecular target: Fuc(a1-2)[GalNAc(a1-3)]Gal(b1-3)GlcNAc(b1-6)GalNAc
Method in brief: as §1

[30] = molecular target: Fuc(a1-2)[GalNAc(a1-3)]Gal(b1-4)Glc
Method in brief: as §1

[31] = molecular target: Fuc(a1-2)[GalNAc(a1-3)]Gal(b1-4)GlcNAc
Method in brief: as §1

[32] = molecular target: Fuc(a1-2)[GalNAc(a1-3)]Gal(b1-4)GlcNAc(b1-2)Man
Method in brief: as §1

[33] = molecular target: Fuc(a1-2)[GalNAc(a1-3)]Gal(b1-4)GlcNAc(b1-2)Man(a1-3)[Fuc(a1-2)[GalNAc(a1-3)]Gal(b1-4)GlcNAc(b1-2)Man(a1-6)]Man(b1-4)GlcNAc(b1-4)GlcNAc
Method in brief: as §1

[34] = molecular target: Fuc(a1-2)[GalNAc(a1-3)]Gal(b1-4)GlcNAc(b1-2)Man(a1-3)[Fuc(a1-2)[GalNAc(a1-3)]Gal(b1-4)GlcNAc(b1-2)Man(a1-6)]Man(b1-4)GlcNAc(b1-4)[Fuc(a1-6)]GlcNAc
Method in brief: as §1

[35] = molecular target: Fuc(a1-2)[GalNAc(a1-3)]Gal(b1-4)GlcNAc(b1-3)Gal(b1-4)GlcNAc
Method in brief: as §1

[36] = molecular target: Fuc(a1-2)[GalNAc(a1-3)]Gal(b1-4)GlcNAc(b1-3)Gal(b1-4)GlcNAc(b1-3)Gal(b1-4)GlcNAc
Method in brief: as §1

[37] = molecular target: Fuc(a1-2)[GalNAc(a1-3)]Gal(b1-4)GlcNAc(b1-3)GalNAc
Method in brief: as §1

[38] = molecular target: Fuc(a1-2)[GalNAc(a1-3)]Gal(b1-4)GlcNAc(b1-3)[Fuc(a1-2)[GalNAc(a1-3)]Gal(b1-4)GlcNAc(b1-6)]GalNAc
Method in brief: as §1

[39] = molecular target: Fuc(a1-2)[GalNAc(a1-3)]Gal(b1-4)GlcNAc(b1-6)GalNAc
Method in brief: as §1

[40] = molecular target: Fuc(a1-2)[GalNAc(a1-3)]Gal(b1-4)[Fuc(a1-3)]GlcNAc
Method in brief: as §1

[41] = molecular target: Fuc(a1-2)[GalNAc(a1-3)]Gal(b1-4)[Fuc(a1-3)]GlcNAc(b1-3)GalNAc
Method in brief: as §1

[42] = molecular target: Fuc(a1-2)[GalNAc(a1-4)]Gal(b1-4)GlcNAc
Method in brief: as §1

[43] = molecular target: Fuc(a1-2)[GalNAc(b1-3)]Gal
Method in brief: as §1

B1: FimA-N2 (Actinomyces oris) (protein)
chain: MHHHHHHSSGVDLGTENLYFQSNAWIYDVNVYPKNEAIDVDKTIQAQKLNGYGVGSLIKFPVESTAPTLDAKSFYKYFQLKDTLDERLSEVTATDVSLEGTPLQPTDYKVETKQQTVTVTFTAEGLKKIKAAPGKKVSAVFQGKVTKAGNGAITNRAQVISDTLYAEQPPTPETPPTDPENPPTSDEVISRWGDLSIKKVDTHQQGQTKA
glycan array binding signal (z-score) [1]: 3.98 | glycan array binding signal (z-score) (Fuc(a1-2)Gal6S(b1-4)Glc): -0.601 | glycan array binding signal (z-score) [2]: 1.12 | glycan array binding signal (z-score) (Fuc(a1-2)[Gal(a1-3)]Gal): 1.78 | glycan array binding signal (z-score) [3]: -0.738 | glycan array binding signal (z-score) [4]: -0.132 | glycan array binding signal (z-score) [5]: -0.75 | glycan array binding signal (z-score) [6]: -0.1 | glycan array binding signal (z-score) [7]: -0.838 | glycan array binding signal (z-score) [8]: 0.316 | glycan array binding signal (z-score) [9]: -1.22 | glycan array binding signal (z-score) [10]: -1.44 | glycan array binding signal (z-score) [11]: -0.176 | glycan array binding signal (z-score) [12]: -1.29 | glycan array binding signal (z-score) [13]: 0.761 | glycan array binding signal (z-score) [14]: 1.74 | glycan array binding signal (z-score) [15]: 0.196 | glycan array binding signal (z-score) [16]: -1.01 | glycan array binding signal (z-score) [17]: 2.61 | glycan array binding signal (z-score) [18]: -0.509 | glycan array binding signal (z-score) [19]: 0.729 | glycan array binding signal (z-score) [20]: -1.56 | glycan array binding signal (z-score) [21]: -0.605 | glycan array binding signal (z-score) [22]: -0.569 | glycan array binding signal (z-score) [23]: 0.055 | glycan array binding signal (z-score) [24]: -1.11 | glycan array binding signal (z-score) [25]: 0.353 | glycan array binding signal (z-score) [26]: -0.122 | glycan array binding signal (z-score) [27]: -0.909 | glycan array binding signal (z-score) [28]: -1.13 | glycan array binding signal (z-score) [29]: -0.945 | glycan array binding signal (z-score) [30]: 0.541 | glycan array binding signal (z-score) [31]: -0.441 | glycan array binding signal (z-score) [32]: -0.337 | glycan array binding signal (z-score) [33]: -0.71 | glycan array binding signal (z-score) [34]: -0.545 | glycan array binding signal (z-score) [35]: 0.271 | glycan array binding signal (z-score) [36]: -0.199 | glycan array binding signal (z-score) [37]: 0.076 | glycan array binding signal (z-score) [38]: -1.05 | glycan array binding signal (z-score) [39]: -1.5 | glycan array binding signal (z-score) [40]: -0.592 | glycan array binding signal (z-score) [41]: -0.366 | glycan array binding signal (z-score) [42]: 0.482 | glycan array binding signal (z-score) [43]: 0.955
